PubChem BioAssay AID1259405, NCATS, 2018
The whole screen tested about 50,000 reagents; shown is a random part of them. Over the whole deposit, about 4,000 (8%) were called active. 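Mouse siRNA library applied to hamster cells; one well for each siRNA.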 Entries without a mark were called inactive. The numbers tell different reagents against one gene apart.

Aim: 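Silenced genes that increase secreted GFP made by CHO cells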 (primary screen)
System: Chinese hamster CHO-K1 ovary cells with stable secreted eGFP expression
Reagents: single siRNA against mouse genes, 0.8 pmol siRNA per well (2 µl of 400 nM stock)
Time to read-out: 3 days
Read-out: 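Per-well intracellular GFP measured by laser scanning cytometry, plus viability from ATP luminescence, each relative to plate median of non-targeting control wells, in %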
Scale: GFP, % of control: higher = more GFP per well, higher productivity; viability (ATP), % of control: higher = more viable cells (more ATP)
Call rule: 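a knock-down is called active if GFP reaches 120% or more of non-targeting control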

no.	gene knocked down	reagent no.	GFP, % of control	viability (ATP), % of control
1	Trmt10b	1	59.6	83.6
2	Trmt10b	2	101	113
3	Gtf3a	1	93.1	90.3
4	Gtf3a	2	125 (active)	62
5	Gtf3a	3	122 (active)	82
6	Mrpl1	1	68.6	51.6
7	Mrpl1	2	42.5	36.2
8	Mrpl1	3	62.9	86.8
9	Tnrc18	1	64.7	114
10	Tnrc18	2	69.8	97.1
11	Tnrc18	3	56	43.9
12	Bicdl2	1	58.9	50.2
13	Bicdl2	2	50.5	80.2
14	Bicdl2	3	112	112
15	Ccdc87	1	114	88.8
16	Ccdc87	2	133 (active)	51.1
17	Ccdc87	3	107	81.4
18	Vmn1r87	1	112	75.2
19	Vmn1r87	2	106	72.3
20	Vmn1r87	3	92.3	98.5
21	Gm4827	1	87.4	53.5
22	Gm4827	2	69.8	70.8
23	Gm4827	3	44.4	92.6
24	Plch2	1	109	79
25	Plch2	2	88.7	92.7
26	Plch2	3	88.7	69.2
27	Khdc3	1	97.9	80.1
28	Khdc3	2	77.7	101
29	Khdc3	3	97.5	111
30	Clec4a4	1	18.6	25.5
31	Clec4a4	2	76.9	54.3
32	Clec4a4	3	34	53.4

Part of the list above in another layout:
{"gene knocked down": "Bicdl2", "reagent no.": 3, "GFP, % of control": 112, "viability (ATP), % of control": 112}
{"gene knocked down": "Ccdc87", "reagent no.": 1, "GFP, % of control": 114, "viability (ATP), % of control": 88.8}
{"gene knocked down": "Ccdc87", "reagent no.": 2, "GFP, % of control": "133 (active)", "viability (ATP), % of control": 51.1}
{"gene knocked down": "Ccdc87", "reagent no.": 3, "GFP, % of control": 107, "viability (ATP), % of control": 81.4}
{"gene knocked down": "Vmn1r87", "reagent no.": 1, "GFP, % of control": 112, "viability (ATP), % of control": 75.2}
{"gene knocked down": "Vmn1r87", "reagent no.": 2, "GFP, % of control": 106, "viability (ATP), % of control": 72.3}
{"gene knocked down": "Vmn1r87", "reagent no.": 3, "GFP, % of control": 92.3, "viability (ATP), % of control": 98.5}
{"gene knocked down": "Gm4827", "reagent no.": 1, "GFP, % of control": 87.4, "viability (ATP), % of control": 53.5}
{"gene knocked down": "Gm4827", "reagent no.": 2, "GFP, % of control": 69.8, "viability (ATP), % of control": 70.8}
{"gene knocked down": "Gm4827", "reagent no.": 3, "GFP, % of control": 44.4, "viability (ATP), % of control": 92.6}
{"gene knocked down": "Plch2", "reagent no.": 1, "GFP, % of control": 109, "viability (ATP), % of control": 79}
{"gene knocked down": "Plch2", "reagent no.": 2, "GFP, % of control": 88.7, "viability (ATP), % of control": 92.7}

More records:
no.	gene knocked down	reagent no.	GFP, % of control	viability (ATP), % of control
33	Cyp26b1	1	58.5	80.1
34	Cyp26b1	2	92.8	79.2
35	Cyp26b1	3	82.3	86.4
36	F2r	1	116	125
37	F2r	2	45.9	71.5
38	F2r	3	66.8	87
39	Zfp92	1	75.8	53
40	Zfp92	2	106	98.5
41	Zfp92	3	86.4	88.7
42	Apof	1	99.4	67.5
43	Apof	2	65.3	65.9
44	Rad17	1	57.6	64.1
45	Rad17	2	81.5	71.7
46	Rad17	3	79.7	79.7
47	Rps27l	1	41.3	53.1
48	Rps27l	2	86.5	79.3
49	Rps27l	3	67.8	65.5
50	Idi1	1	88.6	79.4
51	Idi1	2	71	66.6
52	Idi1	3	76.7	82.4
53	H3f3a	1	43.3	59.8
54	H3f3a	2	109	90.2
55	H3f3a	3	51.9	84.5
56	Hsd17b6	1	87.8	98.5
57	Hsd17b6	2	145 (active)	83.2
58	Hsd17b6	3	111	100
59	Orc1	1	80.6	60.1
60	Orc1	2	76.5	86.4
61	Inf2	1	55.6	65.7
62	Inf2	2	81.1	88.1
63	Inf2	3	42.3	40.9
64	Med23	1	69.9	72.6
65	Med23	2	113	81
66	Med23	3	60.4	102
67	Eif3c	1	34	30.4
68	Eif3c	2	75.5	41.6
69	Eif3c	3	107	60.8
70	Apoc3	1	36.3	16.8
71	Apoc3	2	247 (active)	96.6
72	Apoc3	3	63.3	73.5
73	Psmd6	1	46.1	13.5
74	Psmd6	2	85.2	74.4
75	Psmd6	3	36.7	37.4
76	Lim2	1	102	57.2
77	Lim2	2	63.2	68.1
78	Lim2	3	78.2	110
79	Atp10d	1	102	75.9
80	Atp10d	2	92.9	98.2
81	Atp10d	3	90	126
82	Ran	1	59.8	44.2
83	Ran	2	85.5	96.7
84	Ran	3	147 (active)	52.2
